These are yes or no findings as the source states them, for the method shown. In cells and extracts the contact can be indirect. Some binding calls cover weakened binding; strength is not graded here.
B1: CMTM6 (protein, UniProt Q9NX76 1-183)
chain: MENGAVYSPTTEEDPGPARGPRSGLAAYFFMGRLPLLRRVLKGLQLLLSLLAFICEEVVSQCTLCGGLYFFEFVSCSAFLLSLLILIVYCTPFYERVDTTKVKSSDFYITLGTGCVFLLASIIFVSTHDRTSAEIAAIVFGFIASFMFLLDFITMLYEKRQESQLRKPENTTRAEALTEPLNA

Amino acid sequences for entries named in this document (tags omitted). Residues count along the entry.
UniProt P08581, residues 25-1390: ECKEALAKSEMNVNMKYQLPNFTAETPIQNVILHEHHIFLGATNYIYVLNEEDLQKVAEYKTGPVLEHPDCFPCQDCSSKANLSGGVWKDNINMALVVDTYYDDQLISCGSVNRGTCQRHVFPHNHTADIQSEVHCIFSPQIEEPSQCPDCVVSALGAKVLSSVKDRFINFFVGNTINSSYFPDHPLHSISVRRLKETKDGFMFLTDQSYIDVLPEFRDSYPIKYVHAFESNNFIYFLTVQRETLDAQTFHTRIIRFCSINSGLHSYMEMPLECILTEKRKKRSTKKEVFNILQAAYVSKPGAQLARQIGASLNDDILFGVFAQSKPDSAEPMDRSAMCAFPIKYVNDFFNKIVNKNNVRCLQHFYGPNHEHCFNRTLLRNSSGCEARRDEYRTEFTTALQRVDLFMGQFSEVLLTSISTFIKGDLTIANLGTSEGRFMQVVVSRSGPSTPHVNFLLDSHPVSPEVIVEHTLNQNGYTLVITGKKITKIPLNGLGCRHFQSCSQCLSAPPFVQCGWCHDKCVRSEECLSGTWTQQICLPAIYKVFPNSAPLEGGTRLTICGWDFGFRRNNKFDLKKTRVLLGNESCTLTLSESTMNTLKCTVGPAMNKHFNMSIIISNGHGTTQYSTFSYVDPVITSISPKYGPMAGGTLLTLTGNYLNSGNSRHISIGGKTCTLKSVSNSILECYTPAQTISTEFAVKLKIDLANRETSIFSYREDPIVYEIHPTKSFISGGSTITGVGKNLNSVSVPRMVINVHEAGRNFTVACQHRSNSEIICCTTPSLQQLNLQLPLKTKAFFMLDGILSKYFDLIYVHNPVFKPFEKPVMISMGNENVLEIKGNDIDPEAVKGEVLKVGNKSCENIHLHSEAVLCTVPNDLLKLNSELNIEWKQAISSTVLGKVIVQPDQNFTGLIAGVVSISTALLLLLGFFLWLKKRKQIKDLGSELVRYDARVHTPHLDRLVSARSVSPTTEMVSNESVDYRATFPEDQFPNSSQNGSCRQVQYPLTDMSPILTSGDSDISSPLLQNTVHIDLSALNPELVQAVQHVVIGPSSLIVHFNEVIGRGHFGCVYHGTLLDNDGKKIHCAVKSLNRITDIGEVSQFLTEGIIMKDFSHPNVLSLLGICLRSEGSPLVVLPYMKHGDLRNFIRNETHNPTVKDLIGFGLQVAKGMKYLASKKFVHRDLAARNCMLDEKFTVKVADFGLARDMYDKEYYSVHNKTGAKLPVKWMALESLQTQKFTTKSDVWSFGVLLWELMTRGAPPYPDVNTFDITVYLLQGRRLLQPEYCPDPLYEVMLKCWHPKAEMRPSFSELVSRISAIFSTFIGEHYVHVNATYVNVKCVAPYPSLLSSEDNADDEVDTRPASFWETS
UniProt P16056, residues 25-1379: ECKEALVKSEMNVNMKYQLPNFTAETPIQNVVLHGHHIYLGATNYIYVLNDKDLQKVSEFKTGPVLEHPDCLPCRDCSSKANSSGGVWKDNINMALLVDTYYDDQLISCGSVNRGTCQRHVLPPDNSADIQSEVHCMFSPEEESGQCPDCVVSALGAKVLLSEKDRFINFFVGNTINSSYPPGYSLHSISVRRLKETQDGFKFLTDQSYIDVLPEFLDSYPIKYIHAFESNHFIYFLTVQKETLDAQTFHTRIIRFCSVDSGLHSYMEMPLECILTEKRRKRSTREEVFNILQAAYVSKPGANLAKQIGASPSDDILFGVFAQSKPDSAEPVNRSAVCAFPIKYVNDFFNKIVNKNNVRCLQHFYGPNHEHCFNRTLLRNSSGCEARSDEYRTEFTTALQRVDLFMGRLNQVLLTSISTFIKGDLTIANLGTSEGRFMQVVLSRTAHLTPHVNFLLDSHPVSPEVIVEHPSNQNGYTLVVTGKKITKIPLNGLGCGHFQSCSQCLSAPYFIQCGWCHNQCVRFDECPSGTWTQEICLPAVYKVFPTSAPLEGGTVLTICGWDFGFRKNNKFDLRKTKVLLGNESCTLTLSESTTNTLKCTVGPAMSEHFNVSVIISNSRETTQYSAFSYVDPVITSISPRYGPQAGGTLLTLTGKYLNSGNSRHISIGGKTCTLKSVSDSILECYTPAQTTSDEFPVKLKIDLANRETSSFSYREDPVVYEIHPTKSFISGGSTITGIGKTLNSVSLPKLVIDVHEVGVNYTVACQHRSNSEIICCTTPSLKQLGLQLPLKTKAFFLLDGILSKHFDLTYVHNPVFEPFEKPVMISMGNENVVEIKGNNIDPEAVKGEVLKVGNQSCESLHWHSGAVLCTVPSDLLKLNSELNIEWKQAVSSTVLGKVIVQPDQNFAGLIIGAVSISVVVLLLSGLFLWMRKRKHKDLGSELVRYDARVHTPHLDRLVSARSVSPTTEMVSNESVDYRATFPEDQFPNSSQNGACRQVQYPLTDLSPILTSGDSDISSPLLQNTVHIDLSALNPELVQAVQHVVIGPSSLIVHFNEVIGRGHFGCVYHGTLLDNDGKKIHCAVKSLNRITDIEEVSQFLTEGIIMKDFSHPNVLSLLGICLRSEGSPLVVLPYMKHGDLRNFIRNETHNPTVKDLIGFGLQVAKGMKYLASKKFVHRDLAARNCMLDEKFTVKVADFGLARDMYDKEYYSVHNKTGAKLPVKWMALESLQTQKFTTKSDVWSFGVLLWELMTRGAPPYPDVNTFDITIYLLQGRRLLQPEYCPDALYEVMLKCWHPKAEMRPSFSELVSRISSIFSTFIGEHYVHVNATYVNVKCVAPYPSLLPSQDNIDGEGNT
UniProt Q9NZQ7, residues 19-290: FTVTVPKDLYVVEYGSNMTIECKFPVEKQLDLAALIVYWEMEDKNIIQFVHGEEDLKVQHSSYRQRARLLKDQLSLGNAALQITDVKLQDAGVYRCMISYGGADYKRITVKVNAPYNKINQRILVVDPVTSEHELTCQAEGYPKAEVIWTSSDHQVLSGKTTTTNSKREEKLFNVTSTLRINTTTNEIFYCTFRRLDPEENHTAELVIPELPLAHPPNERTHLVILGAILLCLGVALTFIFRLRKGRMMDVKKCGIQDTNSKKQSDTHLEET
UniProt Q9EP73, residues 19-290: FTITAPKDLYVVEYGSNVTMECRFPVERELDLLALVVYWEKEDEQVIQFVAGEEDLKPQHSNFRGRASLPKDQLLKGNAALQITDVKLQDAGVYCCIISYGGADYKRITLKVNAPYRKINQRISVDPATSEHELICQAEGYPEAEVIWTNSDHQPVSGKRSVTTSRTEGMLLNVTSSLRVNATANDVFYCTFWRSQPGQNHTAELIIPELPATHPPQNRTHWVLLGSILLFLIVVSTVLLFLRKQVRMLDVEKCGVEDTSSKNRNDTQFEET

What was measured:
[1] = target: MET (human (endogenous in BXPC-3)) (UniProt P08581); assay: co-IP; endogenous co-immunoprecipitation from BXPC3 or KPC cell lysates (IP Cell Lysis Buffer); 5 µg antibody (anti-MET, anti-PD-L1 or anti-CMTM6) on 25 µL protein A/G magnetic beads, overnight at 4 °C; Western blotting
[2] = target: MET (mouse) (mouse (endogenous in KPC)) (UniProt P16056); assay: as above

Row | Molecule | binding [1] | binding [2]
1 | PD-1 ligand 1 (from UniProt Q9NZQ7 19-290) | binds | –
2 | PD-L1 (mouse) (from UniProt Q9EP73 19-290) (ligand) | – | binds
3 | B1 | binds | –

From article PMC8414725
